Measurements: the supplement of paper PMC10849652
The other results are listed elsewhere or left out.

By UniProt entry, the sequences of proteins in these tests, tags left out. Where a name states a change or a piece, a line headed by the entry shows the natural chain unless it says otherwise.
UniProt P07099: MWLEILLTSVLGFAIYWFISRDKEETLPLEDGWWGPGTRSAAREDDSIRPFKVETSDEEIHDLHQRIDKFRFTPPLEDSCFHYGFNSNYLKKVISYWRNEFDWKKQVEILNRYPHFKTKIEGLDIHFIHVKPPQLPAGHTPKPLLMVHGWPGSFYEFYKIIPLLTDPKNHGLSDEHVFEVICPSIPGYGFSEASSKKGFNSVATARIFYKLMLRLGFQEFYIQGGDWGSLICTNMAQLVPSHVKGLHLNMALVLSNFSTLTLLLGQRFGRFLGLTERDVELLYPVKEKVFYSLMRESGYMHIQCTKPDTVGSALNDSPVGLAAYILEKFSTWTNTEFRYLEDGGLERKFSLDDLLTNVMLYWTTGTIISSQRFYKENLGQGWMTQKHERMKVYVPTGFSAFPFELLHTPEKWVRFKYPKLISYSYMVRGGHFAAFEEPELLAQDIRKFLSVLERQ
UniProt P07814: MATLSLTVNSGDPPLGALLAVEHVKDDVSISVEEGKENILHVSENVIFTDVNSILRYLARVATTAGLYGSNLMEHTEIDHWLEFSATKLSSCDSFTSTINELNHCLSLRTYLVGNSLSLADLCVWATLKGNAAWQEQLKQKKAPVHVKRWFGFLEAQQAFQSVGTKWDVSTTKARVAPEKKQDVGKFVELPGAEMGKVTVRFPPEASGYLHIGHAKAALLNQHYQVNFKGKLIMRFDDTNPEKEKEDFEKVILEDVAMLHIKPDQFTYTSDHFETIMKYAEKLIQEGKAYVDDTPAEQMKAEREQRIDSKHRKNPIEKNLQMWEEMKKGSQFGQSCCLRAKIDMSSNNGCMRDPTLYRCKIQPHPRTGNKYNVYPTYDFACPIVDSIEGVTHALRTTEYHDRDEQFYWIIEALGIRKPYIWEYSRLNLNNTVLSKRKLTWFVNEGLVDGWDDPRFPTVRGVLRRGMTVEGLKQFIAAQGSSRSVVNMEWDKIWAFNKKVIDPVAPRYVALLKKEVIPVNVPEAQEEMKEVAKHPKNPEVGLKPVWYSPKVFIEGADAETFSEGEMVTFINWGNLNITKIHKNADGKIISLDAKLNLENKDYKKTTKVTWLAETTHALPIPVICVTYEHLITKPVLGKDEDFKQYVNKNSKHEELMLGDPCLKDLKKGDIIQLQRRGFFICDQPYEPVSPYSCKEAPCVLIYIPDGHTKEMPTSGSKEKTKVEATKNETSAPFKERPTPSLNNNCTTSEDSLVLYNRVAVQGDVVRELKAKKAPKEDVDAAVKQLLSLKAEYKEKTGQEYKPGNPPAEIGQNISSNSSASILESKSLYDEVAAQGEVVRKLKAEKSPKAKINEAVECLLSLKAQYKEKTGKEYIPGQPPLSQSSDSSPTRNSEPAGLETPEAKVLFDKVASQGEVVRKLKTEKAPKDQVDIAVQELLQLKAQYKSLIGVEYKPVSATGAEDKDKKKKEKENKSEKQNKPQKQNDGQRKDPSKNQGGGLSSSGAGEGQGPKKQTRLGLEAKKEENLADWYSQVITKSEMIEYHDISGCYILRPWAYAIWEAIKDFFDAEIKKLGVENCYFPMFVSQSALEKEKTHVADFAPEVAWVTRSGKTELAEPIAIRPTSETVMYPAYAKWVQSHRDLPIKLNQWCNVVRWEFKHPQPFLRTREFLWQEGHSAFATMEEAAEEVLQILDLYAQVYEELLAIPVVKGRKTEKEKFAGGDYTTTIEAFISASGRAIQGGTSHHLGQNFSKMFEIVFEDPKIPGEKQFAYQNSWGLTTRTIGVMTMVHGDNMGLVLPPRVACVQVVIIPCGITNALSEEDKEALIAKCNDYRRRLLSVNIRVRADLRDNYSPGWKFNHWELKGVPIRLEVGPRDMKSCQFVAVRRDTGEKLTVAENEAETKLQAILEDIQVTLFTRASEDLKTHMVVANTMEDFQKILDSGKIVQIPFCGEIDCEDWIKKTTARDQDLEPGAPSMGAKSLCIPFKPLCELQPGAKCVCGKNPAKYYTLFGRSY
UniProt Q9Y3B2, whole entry, looked up: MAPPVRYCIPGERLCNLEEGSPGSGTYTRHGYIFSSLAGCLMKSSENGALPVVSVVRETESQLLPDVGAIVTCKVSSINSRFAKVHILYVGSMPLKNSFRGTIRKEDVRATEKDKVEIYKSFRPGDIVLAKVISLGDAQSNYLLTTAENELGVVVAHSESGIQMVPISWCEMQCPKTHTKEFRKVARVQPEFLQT
UniProt Q9UF33: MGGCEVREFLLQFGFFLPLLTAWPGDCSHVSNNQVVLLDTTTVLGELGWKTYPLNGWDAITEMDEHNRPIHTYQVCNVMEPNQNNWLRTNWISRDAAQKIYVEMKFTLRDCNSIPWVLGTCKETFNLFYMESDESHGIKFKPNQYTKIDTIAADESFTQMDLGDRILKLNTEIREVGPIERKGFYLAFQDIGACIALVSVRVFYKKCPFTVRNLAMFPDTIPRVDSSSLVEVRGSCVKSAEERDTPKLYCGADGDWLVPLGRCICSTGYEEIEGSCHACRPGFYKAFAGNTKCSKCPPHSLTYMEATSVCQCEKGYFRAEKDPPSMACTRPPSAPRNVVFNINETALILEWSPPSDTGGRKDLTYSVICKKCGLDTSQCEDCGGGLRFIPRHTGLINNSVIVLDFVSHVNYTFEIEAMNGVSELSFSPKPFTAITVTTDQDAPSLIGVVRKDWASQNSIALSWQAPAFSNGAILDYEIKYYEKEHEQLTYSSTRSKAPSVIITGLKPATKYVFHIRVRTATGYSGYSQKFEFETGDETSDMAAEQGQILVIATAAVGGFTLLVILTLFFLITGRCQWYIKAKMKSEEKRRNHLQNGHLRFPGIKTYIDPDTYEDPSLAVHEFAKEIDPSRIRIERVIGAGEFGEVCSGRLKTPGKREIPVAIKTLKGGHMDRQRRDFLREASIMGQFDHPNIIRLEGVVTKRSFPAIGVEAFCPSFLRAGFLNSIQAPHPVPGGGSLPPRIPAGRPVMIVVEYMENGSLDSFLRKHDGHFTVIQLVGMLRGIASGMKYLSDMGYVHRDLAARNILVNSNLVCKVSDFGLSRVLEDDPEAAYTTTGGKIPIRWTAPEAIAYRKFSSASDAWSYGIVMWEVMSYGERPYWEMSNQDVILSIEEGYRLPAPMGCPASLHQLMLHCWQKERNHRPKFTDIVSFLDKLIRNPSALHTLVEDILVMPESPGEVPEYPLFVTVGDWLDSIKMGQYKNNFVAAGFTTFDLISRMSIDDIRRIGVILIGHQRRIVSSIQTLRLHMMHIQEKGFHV
UniProt Q96A65: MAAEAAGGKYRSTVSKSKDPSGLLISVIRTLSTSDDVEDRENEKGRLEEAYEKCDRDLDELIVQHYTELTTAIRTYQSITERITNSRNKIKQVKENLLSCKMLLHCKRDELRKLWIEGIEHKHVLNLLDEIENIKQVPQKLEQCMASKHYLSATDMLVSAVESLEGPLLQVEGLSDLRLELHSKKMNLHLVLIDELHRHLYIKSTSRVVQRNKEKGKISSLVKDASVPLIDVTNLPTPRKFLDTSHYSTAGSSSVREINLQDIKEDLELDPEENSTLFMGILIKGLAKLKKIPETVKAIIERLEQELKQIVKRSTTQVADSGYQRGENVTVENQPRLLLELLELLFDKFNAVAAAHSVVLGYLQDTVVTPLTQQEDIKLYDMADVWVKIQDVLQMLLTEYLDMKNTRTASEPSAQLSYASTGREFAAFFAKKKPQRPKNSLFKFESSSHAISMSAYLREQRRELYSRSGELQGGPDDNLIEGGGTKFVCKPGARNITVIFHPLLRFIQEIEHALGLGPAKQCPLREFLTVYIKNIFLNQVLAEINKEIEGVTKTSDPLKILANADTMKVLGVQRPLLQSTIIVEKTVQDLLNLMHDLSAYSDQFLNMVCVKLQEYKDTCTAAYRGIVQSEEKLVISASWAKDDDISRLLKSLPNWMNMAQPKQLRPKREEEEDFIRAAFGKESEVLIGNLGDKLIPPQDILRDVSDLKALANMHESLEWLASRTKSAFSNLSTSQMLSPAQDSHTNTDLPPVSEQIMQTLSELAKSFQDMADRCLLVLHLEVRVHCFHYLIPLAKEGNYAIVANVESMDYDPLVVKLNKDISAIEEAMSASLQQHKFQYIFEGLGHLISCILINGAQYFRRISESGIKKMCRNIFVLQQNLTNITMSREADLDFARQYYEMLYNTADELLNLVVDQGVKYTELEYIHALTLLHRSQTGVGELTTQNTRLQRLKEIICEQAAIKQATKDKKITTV
UniProt O60645: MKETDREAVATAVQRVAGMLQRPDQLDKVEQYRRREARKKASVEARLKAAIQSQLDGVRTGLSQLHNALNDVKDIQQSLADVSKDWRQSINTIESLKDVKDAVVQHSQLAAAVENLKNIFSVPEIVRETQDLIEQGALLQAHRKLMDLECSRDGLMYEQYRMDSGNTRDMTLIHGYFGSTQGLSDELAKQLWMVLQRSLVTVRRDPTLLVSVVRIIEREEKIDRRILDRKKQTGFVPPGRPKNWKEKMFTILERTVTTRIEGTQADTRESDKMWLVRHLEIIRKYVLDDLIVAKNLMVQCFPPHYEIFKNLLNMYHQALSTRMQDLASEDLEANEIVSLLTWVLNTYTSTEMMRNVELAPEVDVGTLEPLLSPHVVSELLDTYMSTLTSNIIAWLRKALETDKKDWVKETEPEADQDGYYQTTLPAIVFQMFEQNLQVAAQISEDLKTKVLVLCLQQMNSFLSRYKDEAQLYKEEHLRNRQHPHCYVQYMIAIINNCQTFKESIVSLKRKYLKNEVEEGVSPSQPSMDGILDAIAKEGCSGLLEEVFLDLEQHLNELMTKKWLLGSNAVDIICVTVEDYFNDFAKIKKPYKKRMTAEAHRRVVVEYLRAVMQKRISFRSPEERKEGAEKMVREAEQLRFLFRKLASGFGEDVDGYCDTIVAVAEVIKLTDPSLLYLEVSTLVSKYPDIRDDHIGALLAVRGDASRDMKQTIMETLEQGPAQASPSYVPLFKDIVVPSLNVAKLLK
UniProt Q9Y282: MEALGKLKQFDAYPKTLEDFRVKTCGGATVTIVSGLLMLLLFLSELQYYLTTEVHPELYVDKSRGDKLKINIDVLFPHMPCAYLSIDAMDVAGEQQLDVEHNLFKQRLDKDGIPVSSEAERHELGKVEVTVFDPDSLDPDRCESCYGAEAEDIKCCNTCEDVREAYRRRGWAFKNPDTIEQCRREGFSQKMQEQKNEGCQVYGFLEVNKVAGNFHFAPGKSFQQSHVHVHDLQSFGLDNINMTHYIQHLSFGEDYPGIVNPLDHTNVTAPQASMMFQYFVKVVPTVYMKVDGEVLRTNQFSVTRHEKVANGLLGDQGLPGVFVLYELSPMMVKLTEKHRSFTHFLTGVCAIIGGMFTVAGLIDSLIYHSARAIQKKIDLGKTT
UniProt Q96GK7: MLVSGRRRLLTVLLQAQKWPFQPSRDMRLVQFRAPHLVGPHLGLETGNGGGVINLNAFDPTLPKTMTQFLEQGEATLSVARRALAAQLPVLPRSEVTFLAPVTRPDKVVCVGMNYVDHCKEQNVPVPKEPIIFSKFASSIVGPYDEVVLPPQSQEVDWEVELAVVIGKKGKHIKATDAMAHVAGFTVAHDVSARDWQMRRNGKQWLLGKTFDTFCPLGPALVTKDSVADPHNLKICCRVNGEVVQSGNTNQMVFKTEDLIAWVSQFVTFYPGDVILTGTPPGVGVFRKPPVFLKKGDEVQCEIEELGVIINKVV
UniProt Q96CS3: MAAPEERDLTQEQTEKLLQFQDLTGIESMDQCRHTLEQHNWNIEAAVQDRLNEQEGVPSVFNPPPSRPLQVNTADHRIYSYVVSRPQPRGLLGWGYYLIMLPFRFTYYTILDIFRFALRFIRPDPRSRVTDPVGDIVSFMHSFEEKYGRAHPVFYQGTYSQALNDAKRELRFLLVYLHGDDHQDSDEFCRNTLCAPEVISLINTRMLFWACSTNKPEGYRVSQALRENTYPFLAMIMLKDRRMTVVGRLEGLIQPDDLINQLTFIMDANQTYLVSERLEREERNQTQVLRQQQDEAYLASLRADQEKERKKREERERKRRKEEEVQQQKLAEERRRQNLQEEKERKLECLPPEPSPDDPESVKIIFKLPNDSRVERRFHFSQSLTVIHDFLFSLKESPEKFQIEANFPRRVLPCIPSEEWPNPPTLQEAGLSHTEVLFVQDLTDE
UniProt P16930: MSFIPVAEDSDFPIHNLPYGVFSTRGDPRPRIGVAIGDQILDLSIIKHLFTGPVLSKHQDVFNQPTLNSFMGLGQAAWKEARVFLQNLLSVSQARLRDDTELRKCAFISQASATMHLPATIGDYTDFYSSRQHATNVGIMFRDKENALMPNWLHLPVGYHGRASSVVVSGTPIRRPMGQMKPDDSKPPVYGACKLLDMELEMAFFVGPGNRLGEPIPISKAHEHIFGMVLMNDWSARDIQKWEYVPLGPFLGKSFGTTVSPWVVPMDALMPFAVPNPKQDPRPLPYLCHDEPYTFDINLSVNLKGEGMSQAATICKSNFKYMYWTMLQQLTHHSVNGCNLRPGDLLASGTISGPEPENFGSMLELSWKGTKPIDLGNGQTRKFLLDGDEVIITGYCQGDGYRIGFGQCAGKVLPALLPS

Legend:
Experiment in all cases: log2 fold change, soluble protein after heating vs DMSO (PISA); higher = thermal stabilisation; K562 cells, 10 uM, 30 min; active = over 0.2 and 3.5 SD of the protein, either way, in both replicates (recomputed)
[1] = compound: CC1=C(C=C(C=C1)NC(=O)C2=CC(=CC=C2)C(C)(C)C#N)NC3=CC4=C(C=C3)N=CN(C4=O)C
Method in brief: (§1)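 Soluble protein was defined as the supernatant after 21,000xg for 90 min. It came from K562 cells at 2×10^6 cells/mL given 10 μM compound for 30 min, heated in aliquots for 3 min across 48°C-58°C, pooled, and extracted in PBS with 0.5% NP-40 at 4°C, and was quantified by TMTpro 16plex LC-MS/MS with equalised channel sums. Thermal stability against control samples, from duplicates, is reported as log2 fold change.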

[2] = compound: CC1=C(C=C(C=C1)NC(=O)C2=CC(=CC=C2)N(C)C)NC(=O)C3=CC=C(C=C3)O
Method in brief: as §1

[3] = compound: CC1=CC=C(C=C1)SC2=C3C=C(SC3=CN=C2)C(=O)N
Method in brief: as §1

[4] = compound: CC1=NC(=CC=C1)C2=C(N=C(N2)C(C)(C)C)C3=CC4=NC=CN=C4C=C3
Method in brief: as §1

Nexturastat A = compound: CCCCN(Cc1ccc(C(=O)NO)cc1)C(=O)Nc1ccccc1 [Nexturastat A]
Method in brief: as §1

vemurafenib = compound: CCCS(=O)(=O)Nc1ccc(F)c(C(=O)c2c[nH]c3ncc(-c4ccc(Cl)cc4)cc23)c1F [vemurafenib]
Method in brief: as §1

[5] = compound: CCCS(=O)(=O)Nc1ccc(F)c(C(=O)c2c[nH]c3ncc(Cl)cc23)c1F
Method in brief: as §1

[6] = compound: CCCc1cc(C)[nH]c(=O)c1CNC(=O)c1cc(-c2ccnc(N3CCN(C)CC3)c2)cc2c1cnn2C(C)C
Method in brief: as §1

givinostat = compound: CCN(CC)Cc1ccc2cc(COC(=O)Nc3ccc(C(=O)NO)cc3)ccc2c1 [givinostat]
Method in brief: as §1

barasertib = compound: CCN(CCCOc1ccc2c(Nc3cc(CC(=O)Nc4cccc(F)c4)[nH]n3)ncnc2c1)CCOP(=O)(O)O [barasertib]
Method in brief: as §1

Measured: log2 fold change

EPHX1 (UniProt P07099)
inactive: [1] -0.008 | [2] -0.012 | [3] -0.008 | [4] -0.018 | Nexturastat A -0.048 | vemurafenib 0.02 | [5] 0.081 | [6] -0.048 | givinostat -0.014 | barasertib -0.044

ERCC3 (UniProt P19447)
inactive: [1] -0.013 | [2] 0.022 | [3] 0.108 | [4] -0.168 | Nexturastat A 0.137 | vemurafenib 0.004 | [5] 0.096 | [6] 0.141 | givinostat 0.136 | barasertib 0.087

EPRS (UniProt P07814)
inactive: [1] 0.043 | [2] 0.007 | [3] -0.017 | [4] -0.079 | Nexturastat A 0.353 | vemurafenib -0.016 | [5] 0.019 | [6] 0.128 | givinostat 0.068 | barasertib -0.021

EPS15L1 isoform 2 (UniProt Q9UBC2)
inactive: [1] -0.004 | [2] 0.003 | [3] 0.004 | [4] 0.028 | Nexturastat A -0.012 | vemurafenib 0.009 | [5] 0.1 | [6] 0.009 | givinostat -0.003 | barasertib -0.001

Looked up one by one from the list above, 2 records:
ERCC3 (UniProt P19447)
inactive: [1] -0.013 | [2] 0.022 | [3] 0.108 | [4] -0.168 | Nexturastat A 0.137 | vemurafenib 0.004 | [5] 0.096 | [6] 0.141 | givinostat 0.136 | barasertib 0.087

EPHX1 (UniProt P07099)
inactive: [1] -0.008 | [2] -0.012 | [3] -0.008 | [4] -0.018 | Nexturastat A -0.048 | vemurafenib 0.02 | [5] 0.081 | [6] -0.048 | givinostat -0.014 | barasertib -0.044

Following part

EXOSC1 (UniProt Q9Y3B2)
inactive: [1] 0.015 | [2] -0.086 | [3] -0.005 | [4] -0.006 | Nexturastat A 0.17 | vemurafenib 0.014 | [5] 0.037 | [6] 0.062 | givinostat 0.082 | barasertib 0.012

EPHA6 (UniProt Q9UF33)
inactive: [1] -0.415 | [2] 0.391 | [3] -0.269 | [4] -0.264 | Nexturastat A 0.04 | vemurafenib -0.656 | [5] -0.947 | [6] -0.501 | barasertib 0.052

EXOC4 (UniProt Q96A65)
inactive: [1] -0.021 | [2] 0.029 | [3] 0.021 | [4] 0.001 | Nexturastat A 0.209 | vemurafenib -0.003 | [5] 0.098 | [6] 0.01 | givinostat 0.133 | barasertib 0.139

EXOC3 (UniProt O60645)
inactive: [1] -0.031 | [2] -0.035 | [3] -0.024 | [4] -0.091 | Nexturastat A 0.174 | vemurafenib -0.072 | [5] 0.054 | [6] 0.07 | givinostat 0.128 | barasertib 0.029

ERGIC3 isoform 3 (UniProt Q9Y282)
inactive: [1] -0.035 | [2] -0.006 | [3] 0.011 | [4] 0.023 | Nexturastat A -0.122 | vemurafenib 0.045 | [5] 0.039 | [6] -0.022 | givinostat 0.018 | barasertib -0.004

FAF1 (UniProt Q9UNN5)
inactive: [1] 0.011 | [2] 0.02 | [3] 0.007 | [4] 0.031 | Nexturastat A -0.033 | vemurafenib 0.02 | [5] 0.03 | [6] -0.026 | givinostat -0.035 | barasertib -0.009

FAHD2A (UniProt Q96GK7)
inactive: [1] -0.028 | [2] -0.004 | [3] 0.004 | [4] -0.002 | Nexturastat A -0.037 | vemurafenib 0 | [5] 0.008 | [6] -0.01 | givinostat -0.019 | barasertib -0.017

FAF2 (UniProt Q96CS3)
inactive: [1] 0.015 | [2] -0.021 | [3] 0.008 | [4] -0.016 | Nexturastat A 0.009 | vemurafenib 0.038 | [5] 0.008 | [6] -0.039 | givinostat 0.036 | barasertib 0.021

FAH (UniProt P16930)
inactive: [1] -0.009 | [2] 0.021 | [3] 0.224 | [4] -0.013 | Nexturastat A -0.041 | vemurafenib -0.003 | [5] -0.012 | [6] -0.109 | givinostat -0.162 | barasertib -0.032
